Results published in paper PMC6408466, “Inner lumen proteins stabilize doublet microtubules in cilia and flagella” (Nature Communications, 2019).
No constants are given. Whether binding was seen depends on the method and setting. Binding seen in cells or lysates may run through a third protein. Some results given as binding are weak or reduced against the parent protein; the word gives no strength. Where a sequence is shown, tags or fusion partners need not be part of it.

Target: T1, FAP45 (flagellar-associated protein 45) (Chlamydomonas (endogenous in wild type axonemes)) (UniProt A8I9E8)
T1 sequence: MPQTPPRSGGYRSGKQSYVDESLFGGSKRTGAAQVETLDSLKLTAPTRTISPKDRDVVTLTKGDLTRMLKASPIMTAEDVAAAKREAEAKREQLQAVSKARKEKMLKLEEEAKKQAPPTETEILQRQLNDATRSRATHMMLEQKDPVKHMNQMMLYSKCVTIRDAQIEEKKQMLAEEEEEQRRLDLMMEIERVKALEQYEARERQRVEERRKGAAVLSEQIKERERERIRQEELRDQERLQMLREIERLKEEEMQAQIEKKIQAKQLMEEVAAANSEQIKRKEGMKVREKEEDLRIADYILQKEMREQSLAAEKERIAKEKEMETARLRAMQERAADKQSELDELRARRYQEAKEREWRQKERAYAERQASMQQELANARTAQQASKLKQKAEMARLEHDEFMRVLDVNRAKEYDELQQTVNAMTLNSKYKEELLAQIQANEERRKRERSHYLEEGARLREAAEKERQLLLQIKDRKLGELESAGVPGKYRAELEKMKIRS
Assay: cross-linking; isolated axonemes treated with EDC (zero-length crosslinker) in HMEK (30 mM Hepes-KOH pH 7.4, 5 mM MgSO4, 1 mM EGTA, 50 mM K-acetate), 60 min, room temperature; SDS-PAGE and western blot with anti-FAP45 and anti-FAP52 antibodies; wild type compared with fap45 and fap52 axonemes

B1: FAP52 (flagellar-associated protein 52) (natural protein, UniProt A8ILK1 1-615, looked up)
chain: MAEPLVLNSVIGFGGAIENGLIAHPDGRTIIYPLGSTIVLRDRADPRSQEFLQGHSDKVSCLALSRSGRYLASGQITYMGFTADIIIWDLESKQLIHRMALHKVKVQALDFSCDERFLASLGGQDDNALVLWDVASGNAICGSPCNTNFTNCVKFFNNSPDKLITAGNFNMNVWTYDAGNNKLRPTDATLGTLKRVFKSVVVDANDEYAYCGTTTGDVLQIALERVLFKNTGPAKGNVQMGVTATCEVPTGDILVGGGDGSLQLLRKMPALAGTKVEGAITSIALADMNARGFTFFVGTAMCNIYKPATSRLKEELVQTAHNDKINGMAFPNEYSEVFATCGTGFIRLWHLTTCRELLRIAVPNLECFCIAFTTDGSAILSGWSDGKIRAFGPQSGKIIFTINDAHQKAVTAIASTADSSRILSGGEEGMVRVWRIGRTSQTLEASMKDHKGPVNCIRIKGSGDECVSASSDGSCILWDLHTFKRRTSLFANTFFKSVVYHPDESQLVTAGTDRKVTYWDAYDGNAIRIIDGSDLDEVNALAVDRDGEALVSGGGDKLVKLWGYDEGHCYFVGVAHSGAITAVGVTPDKQRIVSVGTEGGIFIWDYQRPQTLADI
notes: FAP52 of Chlamydomonas, ortholog of human WDR16, ~66 kDa, WD40 repeat protein; endogenous protein in the axoneme; also called FAP52/WDR16; MIP3a; source: endogenous, isolated wild type Chlamydomonas axonemes
**Q.** Which binding does the source give for B1 here?
**A.** The binding was “binds”.
